Measurements as given in PMC5688660.
No constants are given. Whether binding was seen depends on the method and setting. In cells and extracts the contact can be indirect. Some entries that bind do so weakly or less than the wild type. For some of these results: Where a sequence is shown, tags or fusion partners need not be part of it. One block for each molecule: values may come before it.

Protein sequences, listed by entry. Tags and fused reporters are not part of them.
UniProt Q7Z4L9: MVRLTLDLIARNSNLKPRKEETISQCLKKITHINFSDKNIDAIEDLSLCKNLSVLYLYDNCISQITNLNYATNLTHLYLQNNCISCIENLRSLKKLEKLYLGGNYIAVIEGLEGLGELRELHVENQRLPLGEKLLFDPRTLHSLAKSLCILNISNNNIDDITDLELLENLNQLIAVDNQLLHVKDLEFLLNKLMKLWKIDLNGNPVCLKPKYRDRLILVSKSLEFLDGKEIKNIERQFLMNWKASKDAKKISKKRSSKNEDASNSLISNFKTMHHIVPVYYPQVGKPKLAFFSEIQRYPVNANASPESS

What was measured:
[1] = target: T1, Aurora A, endogenous in ARPE-19 cells (human (endogenous in ARPE-19)) (UniProt O14965); assay: co-IP; untransfected ARPE-19 cells; immunoprecipitated with anti-AurA and anti-Nek2 antibodies and probed for PPP1R42
T1 sequence: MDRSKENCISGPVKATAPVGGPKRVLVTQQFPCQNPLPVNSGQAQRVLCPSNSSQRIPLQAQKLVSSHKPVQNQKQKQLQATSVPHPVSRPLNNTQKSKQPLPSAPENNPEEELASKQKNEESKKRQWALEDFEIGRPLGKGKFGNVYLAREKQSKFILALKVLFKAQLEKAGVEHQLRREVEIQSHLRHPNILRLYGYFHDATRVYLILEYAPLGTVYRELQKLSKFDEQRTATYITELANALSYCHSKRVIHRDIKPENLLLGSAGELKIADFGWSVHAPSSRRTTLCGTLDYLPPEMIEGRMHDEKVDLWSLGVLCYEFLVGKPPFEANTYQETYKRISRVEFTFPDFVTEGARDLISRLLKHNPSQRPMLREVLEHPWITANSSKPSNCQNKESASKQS

[2] = target: T2, Never in mitosis kinase-2, endogenous in ARPE-19 cells (human (endogenous in ARPE-19)) (UniProt P51955); assay: as above
T2 sequence: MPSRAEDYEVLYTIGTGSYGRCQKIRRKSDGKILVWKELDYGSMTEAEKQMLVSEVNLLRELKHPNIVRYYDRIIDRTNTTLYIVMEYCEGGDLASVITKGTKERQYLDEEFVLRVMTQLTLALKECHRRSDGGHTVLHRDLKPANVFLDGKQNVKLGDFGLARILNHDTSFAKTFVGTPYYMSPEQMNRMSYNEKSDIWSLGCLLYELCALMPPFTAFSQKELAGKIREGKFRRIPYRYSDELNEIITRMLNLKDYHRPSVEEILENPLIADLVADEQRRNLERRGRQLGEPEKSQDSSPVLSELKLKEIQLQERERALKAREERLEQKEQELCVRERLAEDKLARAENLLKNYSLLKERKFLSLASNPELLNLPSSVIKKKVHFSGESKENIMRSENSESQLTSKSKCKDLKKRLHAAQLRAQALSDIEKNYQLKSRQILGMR

[3] = target: Phosphoprotein phosphatase 1 regulatory subunit 42, FLAG-tagged (PPP1R42-FLAG) (UniProt Q7Z4L9); assay: co-IP; PPP1R42 coexpressed with Nek2 or AurA in ARPE-19 cells (cycling, serum starved, serum added back); precleared lysate (1 mg protein) immunoprecipitated with affinity purified anti-PPP1R42 antibody and anti-rabbit IgG beads, or no antibody; probed for Nek2 or AurA
[4] = target: T3, Never in mitosis kinase-2, myc-tagged (Nek2-myc; Nek2A expression plasmid) (UniProt P51955); assay: co-IP; ARPE-19 cells cotransfected with AurA and Nek2 plasmids; lysates immunoprecipitated with AurA antibodies, Nek2 antibodies or no antibody and probed for AurA or Nek2
T3 sequence: T2 sequence

[5] = target: T4, Aurora A, myc-tagged (AurA-myc) (UniProt O14965); assay: as above
T4 sequence: T1 sequence

[6] = target: T1, Aurora A, endogenous in ARPE-19 cells (human (endogenous in ARPE-19)); assay: co-IP; untransfected ARPE-19 cell lysates immunoprecipitated with AurA antibodies, Nek2 antibodies or no antibody and probed for AurA or Nek2

binding [1]: binds
binding [2]: binds
Molecule: Phosphoprotein phosphatase 1 regulatory subunit 42, endogenous in ARPE-19 cells (from UniProt Q7Z4L9 1-309)

binding [3]: binds
binding [4]: binds
B1: Aurora A, myc-tagged (AurA-myc) (enzyme, UniProt O14965 1-403)
chain: T1 sequence

binding [3]: binds
binding [5]: binds
B2: Never in mitosis kinase-2, myc-tagged (Nek2-myc; Nek2A expression plasmid) (enzyme, UniProt P51955 1-445)
chain: T2 sequence

binding [6]: binds
B3: Never in mitosis kinase-2, endogenous in ARPE-19 cells (enzyme, UniProt P51955 1-445)
chain: T2 sequence
